# The supplement of paper PMC10338343
# ± gives the standard deviation. This is one part of the list. Many of these values have a large error.
# System: EfPiwi piRISC loaded with L1MC piRNA (26 nt)
# Assay: pre-steady-state target cleavage rate (min^-1); guide: L1MC piRNA 5'p-UAACUAAAUACUAUGCAAGCUGUAGG; MIWI and MILI are mouse PIWI proteins and EfPiwi is from a freshwater sponge; tags in brackets are library labels; higher = faster piRNA-guided slicing of the target
# Conditions: auxiliary factor: 500 nM Ephydatia muelleri Gtsf1
# Protocol: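 Cleave-'n-Seq: a library of target RNAs (target site in constant flanks) at […] was incubated with 1 nM active freshwater sponge Ephydatia fluviatilis Piwi piRISC (synthetic 5'-monophosphorylated piRNA guide) with or without 500 nM EmGtsf1 at 33 °C for 1 min to 16 h. Uncleaved targets were sequenced and the pooled three trials fitted to a burst-and-steady-state model to give the pre-steady-state cleavage rate (min^-1). Sequence is the target site only. Fits with R² ≤ 0 are excluded.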
row,Sequence,pre-steady-state target cleavage rate
1,UCCUCCUACAGCUGGCAUAGUAUUUAGUUA,0.0728 ± 0.02
2,UCCUGGAUGUCGAAGCAUAGUAUUGUAGUUA,0.000775 ± 0.011
3,UCCUGGAUGUGCUUGCAUUGUAUAUAGUUA,0.000418 ± 0.0081
4,UCCUGGAACAGCUUGCAUACAUUUUUCAAA,0.000871 ± 0.0059
5,UCCUCCUACAGCUUGCAUAGUAGUUUAGUUA,0.0131 ± 0.0052
6,UCCUGCUACAGCUACGAUAGUAUUUAGUAA,0.00129 ± 0.0066
7,UCCUGGAACAGCUUGCAUACAAUUUAGUAA,0.00227 ± 0.0032
8,UCCUGCAACAGCUAGCAUAGUAUUUAGUUA,0.0145 ± 0.004
9,UCCUGGAUGUGCUUGCAUAGUAUUUGUUA,0.0013 ± 0.0035
10,UCCUGGAACAGCUUGCAAAGUAUUUAGUAA,0.00293 ± 0.0022
11,UCCUGGAUGUCGAAGCAUAGUAUUUACAAA,0.000614 ± 0.0098
12,UCCUGGAUGUGCUUGCAUAGUAUUUAAUUA,0.113 ± 0.038
13,UCCUGGUACAGCUUGCAUUGUAUUUAGUAA,0.00142 ± 0.007
14,UCCUGGAUCAGCUACGAUAGUAUUUAGUAA,0.000224 ± 0.026
15,UCCUCCUACAGCUAGCAUAGUAUUUUCAAA,0.00276 ± 0.0031
16,UCCUCCUAGAGCUUGGAUAGUAUUUAGUUA,0.0312 ± 0.0067
17,UCCUGGAUGUCGUUGCAUAGUAUAUACUUA,0.000295 ± 0.021
18,UCCUGGAUGUCGAACGUAAGUAUUUAGUUA [g2:g12:cont:t1A],0.000124 ± 0.014
19,UCCUGGAUGUCCUUGCAUAGAAUUUUGUUA,0.000177 ± 0.031
20,UCCUGGAUGUGCUUGCAUCAGUAUUUAGUUA,0.00147 ± 0.0056
21,UCCUGCUACACUUGCAUAGUAUUUAGUUA,0.00903 ± 0.0027
22,UCCUGGAAUAGCUUGCAUAGUAUUUAGUUA,0.0137 ± 0.0037
23,UCCUGGUACAGCUACCAUAGUAUUUAGUAA,0.00114 ± 0.0042
24,UCCUGGAUGUGCUUGCUUAGUAUUUAGAUA,0.000721 ± 0.0056
25,UCCUGGAUGUCCUUGCAUAUAUUUAGUUA,0.000425 ± 0.0087
26,UCCUGCUACAGCUUCCAUAGAAUUUAGUUA,0.00109 ± 0.0031
27,UCCUCCUACAGCAUGCAUAGUAUUUACUUA,0.00211 ± 0.0017
28,UCCUGGAUGUGCUUGCAUAGUUAAUAGUUA,0.00166 ± 0.0051

# Same assay, conditions: auxiliary factor: none (no Gtsf1)
row,Sequence,pre-steady-state target cleavage rate
1,UCCUGCUACAGCUUGCAUAGUUUUUAGAUA,0.000472 ± 0.015
2,UCCUGGAUGUCGAAGCAUAGUAUUGUAGUUA,0.0004 ± 0.016
3,UCCUGGAUGUGCUUGCAUUGUAUAUAGUUA,0.000377 ± 0.019
4,UCCUGGAACAGCUUGCAUACAUUUUUCAAA,0.000145 ± 0.059
5,UCCUGCAACAGCUAGCAUAGUAUUUAGUUA,0.000879 ± 0.0068
6,UCCUGGAUGUGCUUGCAUAGUAUUUGUUA,0.000467 ± 0.019
7,UCCUGGAACAGCUUGCAAAGUAUUUAGUAA,0.000691 ± 0.0098
8,UCCUGGAUGUGCUUGCAUAGUAUUUAAUUA,0.000695 ± 0.017
9,UCCUGGUACAGCUUGCAUUGUAUUUAGUAA,0.000717 ± 0.014
10,UCCUGGAUGUGCUUGCAUCAGUAUUUAGUUA,0.000526 ± 0.014
11,UCCUGGAUGUGCUUGCUUAGUAUUUAGAUA,0.000129 ± 0.043
12,UCCUCCUACAGCAUGCAUAGUAUUUACUUA,0.00026 ± 0.017
13,UCCUGGAUGUGCUUGCAUAGUUAAUAGUUA,0.000509 ± 0.023
